# Results from PubChem BioAssay AID445 (National Center for Advancing Translational Sciences (NCATS), 2006).
# The other results are listed elsewhere or left out. These are further read-outs of the screen, such as a control signal, another cell line or another target. No call is given for them. The list favours compounds with an active or inconclusive main result. The note in brackets gives the kind of curve behind each potency; many fits are weak.
# Test: IkB Signaling
# Conditions: ABC-DLBCL IkBa-CBG/CBR dual luciferase ratio (green luciferase fused to IkBa over red control in OCI-Ly3 lymphoma cells), 4 h
# Method in brief: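 In this assay, an IκBα–CBG68 fusion accumulates when IKK-driven degradation is blocked; native CBR normalizes for cell number. OCI-Ly3 cells were treated 4 h with compound and doxycycline, then green and red light read after Chroma-Glo addition.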
# [1] = measured here: control luc red channel unless noted
# [2] = measured here: IkB-luc green channel
# [3] = measured here: control luc red channel
smiles,measurement,setting,value
CN(C(=O)CSc1nc2ccc(NC(=O)c3ccc(F)cc3)cc2s1)c1ccccc1,AC50,[1],"10 µM [falling, partial curve]"
COc1ccc(NC(=O)CCS(=O)(=O)c2cc(Br)cc3c2N(C(C)=O)CC3)c(OC)c1,AC50,[1],"15.8 µM [rising, partial curve, poor fit]"
O=c1c(-c2ccc(O)cc2)coc2cc(O)cc(O)c12,AC50,[2],"0.002 µM [falling, full curve, poor fit]"
same,AC50,[3],"39.8 µM [falling, single point]"
Cc1ccccc1CCNC(=O)c1cc2ccccn2n1,AC50,[1],"20 µM [falling, partial curve]"
CCOC(=O)Nc1ccc2c(c1)N(C(=O)CCN1CCOCC1)c1ccccc1S2,AC50,[1],"0.794 µM [rising, full curve]"
Cc1cccc(N2CCN(C(=O)Cn3nc(C)c4sc5ccccc5c4c3=O)CC2C)c1 (stereo unspecified),AC50,[1],"6.31 µM [rising, full curve, poor fit]"
COc1ccc(-c2onc(C)c2C)cc1S(=O)(=O)NC1CCCCC1,AC50,[1],"12.6 µM [falling, single point]"
O=C(Nc1cccc(C(=O)OCc2cc(=O)n3nc(C4CC4)sc3n2)c1)c1ccc(F)cc1,AC50,[1],"0.316 µM [falling, full curve]"
CCOc1ccc(N(CC(=O)Nc2cccc(OC)c2)S(=O)(=O)c2c(C)noc2C)cc1,AC50,[1],"7.94 µM [falling, partial curve]"
CCc1ccc(NC(=O)CN2C(=O)C(=O)c3ccccc32)cc1,AC50,[1],"25.1 µM [falling, partial curve]"
COc1ccc(S(=O)(=O)Nc2ccc(O)c(Sc3nc4ccccc4s3)c2)cc1,AC50,[1],"39.8 µM [falling, single point]"
CCCc1[nH]n(-c2nc3ccccc3s2)c(=O)c1C=NCC1CCCO1 (stereo unspecified),AC50,[1],"15.8 µM [falling, partial curve]"
Cn1c(CNc2ccc(Cl)cc2)nc2ccccc21,AC50,[1],"15.8 µM [falling, single point]"
COc1cccc2[nH]c3c(N4CCN(Cc5ccc6c(c5)OCO6)CC4)ncnc3c12,AC50,[1],"31.6 µM [falling, partial curve]"
CCOCCCn1c(=N)c(S(=O)(=O)c2ccccc2)cc2c(=O)n3cc(C)ccc3nc21,AC50,[1],"2.51 µM [rising, partial curve]"
Cc1ccc(-n2nc(C)c3c(C)c(CCC(=O)NCc4cccc(Cl)c4)c(C)nc32)cc1C,AC50,[1],"15.8 µM [falling, partial curve]"
Cc1cccc(C(=O)Nc2cc3c(cc2N2CCCCC2)n(C)c(=O)n3C)c1,AC50,[1],"12.6 µM [falling, partial curve, poor fit]"
O=C(CSc1c2c(nc3ccc(Cl)cc13)CCCC2)N1CCCCC1,AC50,[1],"15.8 µM [falling, partial curve]"
COc1ccc(C(=O)Oc2c(Sc3ccc(C)cc3)c(C)nn2C(C)(C)C)c(OC)c1,AC50,[1],"6.31 µM [falling, partial curve]"
O=C(NCc1cccnc1)c1ccc(COc2ccc3c(c2)CCC3)o1,AC50,[1],"10 µM [falling, partial curve]"
C=Cc1ccc(Cn2c(C(=O)O)c(CNCc3cc(OC)ccc3OC)c3ccc(C)cc32)cc1,AC50,[1],"25.1 µM [falling, single point]"
CCC12CN3CC(C)(CN(C1)C3c1c(C)[nH]c3ccccc13)C2=O (stereo unspecified),AC50,[1],"25.1 µM [falling, single point]"
CCOC(=O)c1cc2c(ccn2C)n1CC(=O)N1CCC(Cc2ccccc2)CC1,AC50,[1],"25.1 µM [falling, partial curve]"
COC(=O)C1=C(c2ccccc2)c2ccccc2S(=O)(=O)N1CC(=O)Nc1cc(C)ccc1C,AC50,[1],"25.1 µM [falling, single point]"
CCOC(=O)c1cccc(NC(=O)CCc2c(C)nc3c4cccnc4nn3c2C)c1,AC50,[1],"39.8 µM [falling, single point]"
COc1ccccc1CN(Cc1cc2c(C)ccc(C)c2[nH]c1=O)Cc1nnnn1Cc1ccco1,AC50,[1],"10 µM [falling, partial curve]"
CSc1ccc(Nc2nn(-c3ccc(OC(F)(F)F)cc3)nc2C(C)=O)cc1,AC50,[1],"20 µM [falling, single point]"
Cc1ccc2c(c1)N(CC(=O)NCc1cccc(Cl)c1)C(=O)c1cccnc1O2,AC50,[1],"25.1 µM [falling, partial curve]"
COc1ccccc1Cn1c(CNS(=O)(=O)c2c(C)cc(C)cc2C)nc2cccnc21,AC50,[1],"39.8 µM [falling, single point]"
Cc1cc(Nc2cccc(Cl)c2C)n2nc(Cc3ccccc3)nc2n1,AC50,[1],"25.1 µM [falling, single point]"
Cc1nn(-c2ccccc2)c(Cl)c1C(=O)N1CCN(c2ncnc3c2cnn3-c2ccccc2)CC1,AC50,[1],"3.16 µM [falling, full curve]"
O=C(NC1CC1)c1ccc(-c2nc3ccccc3s2)s1,AC50,[1],"20 µM [falling, single point]"
COc1cc(CN(CC2CCCO2)C(=O)c2ccccc2F)cc(OC)c1OC (stereo unspecified),AC50,[1],"15.8 µM [falling, single point]"
Cc1cc(C)c(NC(=O)Cn2c(=O)n(CCCCC(=O)NCc3ccccc3Cl)c(=O)c3ccccc32)c(C)c1,AC50,[2],"31.6 µM [rising, single point]"
same,AC50,[3],"7.94 µM [rising, partial curve]"
CCn1c(=O)cc(OCC(=O)N2CCN(c3cccc(C(F)(F)F)c3)CC2)c2ccccc21,AC50,[1],"10 µM [falling, partial curve]"
Cc1nc2sc(C(=O)NCc3ccc(Cl)cc3)c(NC(=O)c3ccccc3)c2c(C)c1C,AC50,[1],"20 µM [rising, partial curve, poor fit]"
Cc1ccccc1NC(=O)c1nc(-c2ccncc2)no1,AC50,[1],"2 µM [falling, full curve]"
CCC(C(=O)OCc1cc(=O)n2nc(CCOC)sc2n1)c1ccccc1 (stereo unspecified),AC50,[1],"10 µM [falling, partial curve]"
Cc1ccc(-c2cn3c(n2)sc2cc(C(=O)N4CCCCC4)ccc23)cc1,AC50,[1],"10 µM [falling, partial curve]"
